Results are given in words; binding and its absence hold for the method and conditions named. Binding calls can cover weak binding; strength is not graded here. Sequences can lack the tags named with a protein.
Columns and labels:
Assay in all cases: far-Western, overlay or dot blot; T7-tagged N-terminus of Xirp1 (residues 1-58) overlaid on blotted EEF-tagged EVH1 domains
[1] = target: EEF-tagged EVH1 domain of zebrafish Enah (zebrafish)
[2] = target: EEF-tagged EVH1 domain of zebrafish VaspI (zebrafish)
[3] = target: EEF-tagged EVH1 domain of zebrafish VaspII (zebrafish)

Measured: binding

B1: T7-tagged N-terminus of zebrafish Xirp1 (residues 1-58) containing proline-rich repeat1 (PR1) (domain or fragment, UniProt Q5PZ43 1-58)
chain: MAEVAKQKKATEAVCGDEDFPPPPPPLPRPQVLESLQKDLSQNFLPVPPPKETFSEIY
binds: all assays above

Reference: paper PMC3280289
